Data published in publication PMC2845627.
Results are given in words; binding and its absence hold for the method and conditions named. Some entries that bind do so weakly or less than the wild type.

T1: AtGyrA (Hybrigenics two-hybrid service) (A. thaliana) (UniProt Q9CAF6)
T1 sequence: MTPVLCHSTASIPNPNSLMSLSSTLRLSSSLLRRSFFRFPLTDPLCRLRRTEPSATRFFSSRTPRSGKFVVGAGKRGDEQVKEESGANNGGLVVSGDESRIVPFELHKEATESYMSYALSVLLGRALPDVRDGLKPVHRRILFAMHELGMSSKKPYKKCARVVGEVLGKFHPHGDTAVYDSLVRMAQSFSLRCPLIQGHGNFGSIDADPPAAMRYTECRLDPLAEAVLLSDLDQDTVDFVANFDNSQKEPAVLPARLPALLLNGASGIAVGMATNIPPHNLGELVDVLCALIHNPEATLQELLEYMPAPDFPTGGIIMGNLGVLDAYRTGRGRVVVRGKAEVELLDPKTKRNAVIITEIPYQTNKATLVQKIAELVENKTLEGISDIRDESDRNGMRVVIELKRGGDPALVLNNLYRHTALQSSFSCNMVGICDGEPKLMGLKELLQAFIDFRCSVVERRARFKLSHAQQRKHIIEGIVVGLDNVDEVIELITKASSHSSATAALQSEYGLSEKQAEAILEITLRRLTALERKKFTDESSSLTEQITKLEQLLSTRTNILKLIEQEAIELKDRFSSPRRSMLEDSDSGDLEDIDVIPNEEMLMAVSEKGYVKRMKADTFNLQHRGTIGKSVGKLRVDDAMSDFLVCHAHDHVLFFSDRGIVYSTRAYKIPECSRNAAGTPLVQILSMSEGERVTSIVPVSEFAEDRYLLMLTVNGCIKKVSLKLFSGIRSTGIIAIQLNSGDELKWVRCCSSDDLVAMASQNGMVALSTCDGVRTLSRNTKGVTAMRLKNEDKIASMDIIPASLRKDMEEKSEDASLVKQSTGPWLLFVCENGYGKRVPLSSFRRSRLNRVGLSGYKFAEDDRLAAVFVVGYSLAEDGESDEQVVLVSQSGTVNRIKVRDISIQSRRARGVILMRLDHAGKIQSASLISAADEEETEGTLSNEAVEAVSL

T2: AtGyrB3 (Hybrigenics two-hybrid service) (A. thaliana) (UniProt Q8VY11)
T2 sequence: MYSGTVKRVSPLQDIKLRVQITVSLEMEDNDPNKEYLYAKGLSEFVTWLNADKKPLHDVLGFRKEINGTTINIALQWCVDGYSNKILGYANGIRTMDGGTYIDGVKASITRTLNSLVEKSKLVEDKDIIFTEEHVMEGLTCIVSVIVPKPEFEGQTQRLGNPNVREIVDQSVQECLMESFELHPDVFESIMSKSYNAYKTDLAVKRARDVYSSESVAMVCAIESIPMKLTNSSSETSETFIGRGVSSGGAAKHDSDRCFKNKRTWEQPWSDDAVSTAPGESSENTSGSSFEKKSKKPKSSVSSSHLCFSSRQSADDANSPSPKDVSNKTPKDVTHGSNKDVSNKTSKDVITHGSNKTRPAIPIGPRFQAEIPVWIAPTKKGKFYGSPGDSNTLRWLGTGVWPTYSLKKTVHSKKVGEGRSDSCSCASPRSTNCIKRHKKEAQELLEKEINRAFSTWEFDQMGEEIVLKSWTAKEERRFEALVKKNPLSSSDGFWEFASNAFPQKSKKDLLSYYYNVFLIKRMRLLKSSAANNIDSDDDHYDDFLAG

B1: transcription factor AtMYB124 (protein, UniProt Q94FL6 1-436)
chain: MEDTKKKKKKNINNNQDSKKKERHIVTWSQEEDVILREQITLHGTENWAIIASKFKDKSTRQCRRRWYTYLNSDFKRGGWSPEEDMLLCEAQRVFGNRWTEIAKVVSGRTDNAVKNRFTTLCKKRAKHEAMTKDSNSNTKRMLFLDGISTPRKSENETPIAKKLKRSHILDLTEISNYGRAEACVNQQIRSPFSVLARNATGIDSLEEQNQTSNVNESDGEGMFLKKDDPKVTALMQQAELLSSLAQKVNADNTEQSMENAWKVLQDFLNKGKENDLFRYGIPDIDFKIEEFKDLIEDLRSGYEDNQLSWRQPDLHDSPASSEYSSGSTIMVDQSGDKTQPFSADTQTEHKQVGEELLVPKNPDENMPISGEEKFSSPIQVTPLFRSLADGIPSPQFSESERSFLLKTLGIESSSPCPSANPSKPPPCKRVLLHSL
B2: AtGyrB3 (Hybrigenics two-hybrid service) (protein, UniProt Q8VY11 1-546)
chain: T2 sequence
B3: ubiquitin-protein ligase (At1g67530) (protein, UniProt Q9CAG5 1-782)
chain: MDVTELEENLFAASDAKLHGDMCKELSGVLCKVLSIFPSLEGARPRSKSGIQALCSLHIALEKAKNILQHCSECSKLYLAITGDAVLLKFEKAKIALIDGLKRVEDIVPSSIGSQILEIVGELENTRFMLDPSEKEVGDQIIALLQQGKKFDNCNDNTELEIFHRAATRLSITSSRVALAERRALKKLIDRARAEEDKRKESIVAYLLHLMRKCSKLFRSEILDENDSPGSYPCSPNEDHGSVHGFGRQLSRFGSLNDKPMNSINSGQMPVPPEELRCPISLQLMCDPVIIASGQTYERVCIEKWFSDGHNTCPKTQQQLPHISLTPNNCVKGLIASWCEQNGTQIPSGPPESQDLDYWRLALSDSESTKSQSVNSIGSYKLKGVKIVPLEENGTTVVERQNTEESFVSDDDDEEDSDINVLERYQDLLAVLNEEEGLEKKCKVVEKIRLLLKDDEEARIFMGANGFVEALLRFLGSAVDDNNAAAQDSGAMALFNLAVNNNRNKELMLTSGVIRLLEKMISSAESHGSATALYLNLSCLDEAKSVIGSSQAVPFLVQLLQKEIETQCKLDALHALYNLSTYSPNIPALLSSNIIKSLQGLLASTGENLWIEKSLAVLLNLASSQEGKDEAVSSQGMISSLATVLDMGDTTEQEQAVSCLLILCNGRESCIQMVLQEGVIPSLVSISVNGTPRGREKSQKLLMLFREERQQRDQPSSNRDEPPQKEPARKSLSAPLSVHGSTPASASVQDYEPRVLSKSMSRRKSMARPFSFFWKKSYSVRE
B4: ethylene-inducing calmodulin-binding protein (At5g09410) (protein, UniProt Q9FY74 1-1007)
chain: MVDRRSFGSITPPLQLDMEQLLSEAQHRWLRPTEICEILQNYHKFHIASESPTRPASGSLFLFDRKVLRYFRKDGHNWRKKKDGKTIREAHEKLKVGSIDVLHCYYAHGEANENFQRRCYWMLEQHLMHIVFVHYLEVKGNRTSIGMKENNSNSVNGTASVNIDSTASPTSTLSSLCEDADTGDSQQASSVLRPSPEPQTGNRYGWTPAPGMRNVSQVHGNRVRESDSQRLVDVRALDTVGNSLTRFHDQPYCNNLLTQMQPSNTDSMLVEENSEKGGRLKAEHIRNPLQTQFNWQDDTDLALFEQSAQDNFETFSSLLGSENLQPFGISYQAPPSNMDSEYMPVMKILRRSEDSLKKVDSFSKWAIKELGEMEDLQMQSSRGDIAWTTVECETAAAGISLSPSLSEDQRFTIVDFWPKSAKTDAEVEVMVIGTFLLSPQEVTKYNWSCMFGEVEVPAEILVDGVLCCHAPPHTAGHVPFYVTCSNRFACSEVREFDFLSGSTQKINATDVYGTYTNEASLQLRFEKMLAHRDFVHEHHIFEDVGDKRRQISKIMLLKEEKEYLLPGTYQRDSTKQEPKGQLFRELFEEELYIWLIHKVTEEGKGPNILDEDGQGILHFVAALGYDWAIKPVLAAGVNINFRDANGWSALHWAAFSGREETVAVLVSLGADAGALTDPSPELPLGKTAADLAYANGHRGISGFLAESSLTSYLEKLTVDSKENSPANSCGEKAVQTVSERTAAPMTYGDVPEKLSLKDSLTAVRNATQAADRLHQVFRMQSFQRKQLCDIGDDEKIDISDQLAVSFAASKTKNPGQGDVSLSCAATHIQKKYRGWKKRKEFLLIRQRIVKIQAHVRGHQVRKQYRTVIWSVGLLEKIILRWRRKGNGLRGFKRNAVAKTVEPEPPVSAICPRIPQEDEYDYLKEGRKQTEERLQKALTRVKSMVQYPEARDQYRRLLTVVEGFRENEASSSASINNKEEEAVNCEEDDFIDIESLLNDDTLMMSISP
B5: oxidoreductase (At1g16720) (protein, UniProt Q8W4D6 1-598)
chain: MVGSIVGSNMAATDARFLSSNFGNSFSINTRIHRFHDRSQIVIPRAQSSSSPSPSPPSDKKKTKTRPGTITTKESEETVAKKLDVAPPSPQSPPSPPTLKLDDVNPVGLGRRSRQIFDEVWRKFSGLGQMSRTTRPDEQETLDSLLIREGPMCEFAVPGAQNVTVLVVGATSRIGRIVVRKLMLRGYTVKALVRKQDEEVMSMLPRSVDIVVGDVGEPSTLKSAVESCSKIIYCATARSTITADLTRVDHLGVYNLTKAFQDYNNRLAQLRAGKSSKSKLLLAKFKSAESLDGWEIRQGTYFQDTTASKYDGGMDAKFEFTETERAEFSGYVFTRGGYVELSKKLSLPLGTTLDRYEGLVLSVGGNGRSYVVILEAGPSSDMSQSKQYFARISTKAGFCRVRVPFSAFRPVNPEDPPLDPFLVHTLTIRFEPKRQRPVDGLAGAQQDLRSFSLVFEYIKALPAGQETDFILVSCTGSGVEANRREQVLKAKRAGEDSLRRSGLGYTIIRPGPLKEEPGGQRALIFDQGNRISQGISCADVADICVKALHDSTARNKSFDVCHEYVAEQGIELYELVAHLPDKANNYLTPALSVLEKNT
B6: AtGyrA (Hybrigenics two-hybrid service) (protein, UniProt Q9CAF6 1-950)
chain: T1 sequence

The binders below were run against T1, AtGyrA (Hybrigenics two-hybrid service) (A. thaliana) (assay: two-hybrid; yeast two-hybrid service (Hybrigenics); AtGyrA or AtGyrB3 used as the bait).

binding	Binder
binds	B1
no binding	B2

These binders were tested against T2, AtGyrB3 (Hybrigenics two-hybrid service) (A. thaliana) in the same assay as above.

binding	Binder
binds	B3
binds	B4
binds	B5
no binding	B6
